# Test results reported in patent US20230357405A1.
# Results are given in words; binding and its absence hold for the method and conditions named. Binding calls can cover weak binding; strength is not graded here.
# Molecular target: cynomolgus PD-1 recombinant protein (cynomolgus)
# Test: HTRF binding assay
row,binding,Binder
1,binds,Humabody® 1.1 (VHH) VHH: QVQLVESGGGLVKPGGSLRLSCAASGFTFSDYTMTWMRQAPGKGLEWVSYISTGGTIKYYTDSVKGRFTISRDNAKNSLYLQMNSLRADDTAVYYCAREAPLRLGESPHDAFDIWGQGTMVTVSS
2,binds,Humabody® 1.57 (VHH) VHH: QVQLVESGGGLVKPGGSLRLSCAASGFTFSDNSMTWMRQAPGKGLEWVSYISSGGGVIFYADSVKGRFTISRDNAKNSLYLQMNSLRADDTAVYYCAREAPLRLGESPHDAFDISGQGTMVTVSS
3,binds,Humabody® 1.92 (VHH) VHH: EVQLVESGGGLVKPGGSLRLSCAASGFTFSDESMTWMRQAPGKGLEWVSYISSGGGVKFYADSVKGRFTISRDNAKNSLYLQMNSLRAEDTAVYYCAREAPLRLGESPHDAFDISGQGTMVTVSS
4,binds,1.57-4GS-1.57 (protein) QVQLVESGGGLVKPGGSLRLSCAASGFTFSDNSMTWMRQAPGKGLEWVSYISSGGGVIFYADSVKGRFTISRDNAKNSLYLQMNSLRADDTAVYYCAREAPLRLGESPHDAFDISGQGTMVTVSSGGGGSGGGGSGGGGSGGGGSQVQLVESGGGLVKPGGSLRLSCAASGFTFSDNSMTWMRQAPGKGLEWVSYISSGGGVIFYADSVKGRFTISRDNAKNSLYLQMNSLRADDTAVYYCAREAPLRLGESPHDAFDISGQGTMVTVSS
